Source: article PMC7526919
Results are given in words; binding and its absence hold for the method and conditions named. Binding seen in cells or lysates may run through a third protein.

Chains of the proteins cited; added tags and fusions are not shown.
UniProt O00401: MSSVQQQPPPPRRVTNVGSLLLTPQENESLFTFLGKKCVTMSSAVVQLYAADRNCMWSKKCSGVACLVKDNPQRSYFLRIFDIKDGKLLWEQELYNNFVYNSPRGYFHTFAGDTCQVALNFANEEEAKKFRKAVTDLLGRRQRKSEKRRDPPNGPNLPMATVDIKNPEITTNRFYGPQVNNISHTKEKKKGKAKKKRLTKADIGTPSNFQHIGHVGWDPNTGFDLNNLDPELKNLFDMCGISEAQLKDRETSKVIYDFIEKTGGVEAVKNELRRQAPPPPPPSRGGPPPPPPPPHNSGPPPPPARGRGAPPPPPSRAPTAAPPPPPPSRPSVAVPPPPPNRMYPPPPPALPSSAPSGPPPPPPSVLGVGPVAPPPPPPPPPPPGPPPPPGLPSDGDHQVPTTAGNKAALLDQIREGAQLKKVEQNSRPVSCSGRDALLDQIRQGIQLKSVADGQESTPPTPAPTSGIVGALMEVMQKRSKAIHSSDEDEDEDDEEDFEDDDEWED
UniProt O84702: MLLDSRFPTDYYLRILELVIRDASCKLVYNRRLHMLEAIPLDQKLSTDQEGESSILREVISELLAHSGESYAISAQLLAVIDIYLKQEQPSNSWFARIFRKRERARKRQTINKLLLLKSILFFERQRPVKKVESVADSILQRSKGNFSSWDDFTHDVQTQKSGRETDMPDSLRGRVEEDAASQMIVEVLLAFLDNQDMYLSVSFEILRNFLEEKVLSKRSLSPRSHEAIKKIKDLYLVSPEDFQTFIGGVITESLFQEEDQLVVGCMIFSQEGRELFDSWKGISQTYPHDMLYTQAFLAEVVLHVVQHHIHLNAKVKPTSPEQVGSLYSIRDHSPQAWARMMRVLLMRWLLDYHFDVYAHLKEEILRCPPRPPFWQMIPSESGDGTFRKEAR

Target: flag-tagged N-WASP (UniProt O00401)
Assay: co-IP; HeLa cells co-transfected with flag-tagged N-WASP or N-WASPΔGBD and a GFP-tagged effector; lysis in 50mM Tris HCl pH7.4, 150mM NaCl, 1mM EDTA, 1% Triton-X 100; flag-tagged N-WASP immunoprecipitated with M2 affinity resin; blots with anti-flag or anti-GFP

GFP-tagged CT696 (from UniProt O84702 1-392)
binding: no binding
